The subject of the experiment is CCRF-CEM leukemia. The experiment can be described thus: NCI-60 one-dose screen, 48 h (100 = growth as untreated, 0 = no growth, -100 = all killed). Conditions: 10 µM.

This is a selection; strong and weak results do not stand in their true shares.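 Each cell line was grown in a 96-well plate and treated with one concentration of compound for 48 hours. Values below 10 were considered active.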 Active and inactive are the calls of the source.

With `NS(=O)(=O)c1ccc(-n2cc(C(=O)NO)c(-c3ccc(Br)cc3)n2)cc1`, the growth is active: 2.75%.

(Values after PubChem BioAssay (NCI).)
